The supplement of paper PMC12889115
Some of the results follow. Values are raw readings; no control value is given beside them.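 First-pass screen: polymyxin B was added at a level that permeabilizes the Salmonella outer membrane while sparing the inner membrane. DMSO wells, with and without polymyxin B, defined maximum growth. Because plates differed from one another, each plate's data were ranked separately and the compounds with the lowest OD600 were carried forward as hits.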

Test system: Salmonella enterica serovar Typhimurium SL1344
Assay: bacterial growth OD600 after 18 h with compound and polymyxin B; higher = more bacterial growth (less inhibition)
Settings: 50 µM, Mueller-Hinton broth

| Compound | bacterial growth OD600 (polymyxin B 0.75 µg/mL) | bacterial growth OD600 (polymyxin B 1 µg/mL) |
| --- | --- | --- |
| COc1ccc(-c2ccccc2NC(=O)C2CCCN2Cc2c[nH]c(C)n2)cc1 (stereo not given) | 0.844 |  |
| COC(=O)CCCNC(=O)CCC1(Cc2ccc(OC)c3ccccc23)CCC(=O)N1 (stereo not given) | 0.853 |  |
| Cc1nccn1-c1ccc(NC(=O)C2CCCN2C(=O)CC2=CCCCC2)cc1 (stereo not given) | 0.835 |  |
| CCCCNC(=O)N1C[C@H]2OC(=O)N(Cc3ccc(OC)c(OC)c3)[C@H]2C1 | 0.819 |  |
| Cc1nc(N2CCCC(NCCC3=CC[C@H]4C[C@@H]3C4(C)C)CC2)nc2cc(S(C)(=O)=O)ccc12 (stereo not given in full) | 0.024 |  |
| CN(Cc1nc(-c2ccccc2)no1)CC1CCN(Cc2ccccc2)CC1 | 0.548 |  |
| O=C(Nc1ccccc1Oc1cccnc1)C1CCCN1C1CCC1 (stereo not given) | 0.749 |  |
| CCN(C)C(=O)C1CCC(=O)N(CCc2ccc(OC)cc2)C1 (stereo not given) |  | 1.01 |
| Cc1oc(-c2cccc(NC(=O)C3CCCN(C)C3)c2)nc1CNC(=O)c1cc(C(C)C)on1 (stereo not given) | 0.864 |  |
| COc1ccc(C(=O)N2CCCC2)c(OC2CCN(C3CSCCSC3)CC2)c1 |  | 1.08 |
| CN(Cc1cccnc1)Cc1cn(Cc2ccccc2)nc1-c1ccc2c(c1)OCO2 |  | 0.028 |
| CCOC(=O)N1CCC(NC(=O)C2CC23CCN(C(=O)Cc2cccc(C(F)(F)F)c2)CC3)CC1 (stereo not given) | 0.955 |  |
| Cc1csc(CNC(=O)CC(c2cccc(O)c2)c2ccccc2Cl)n1 (stereo not given) |  | 0.74 |
| Cn1cc(CN2CCCN(C=O)CC2)c(-c2ccc(C3CCCCC3)cc2)n1 |  | 0.467 |
| O=C(C1CCN(c2nc(-c3ccccc3)nc3c2CCC3)CC1)N1CCSCC1 |  | 0.016 |
| COc1ccc(-c2n[nH]cc2CNCCc2ccc(Cl)cc2)cc1F |  | 0.797 |
| O=C(c1ccc2c3c(cccc13)CC2)C1CCCN(C(=O)c2cnn3cccnc23)C1 (stereo not given) |  | 0.795 |
| CCOC(=O)N1CCN(C(=O)c2cn(C3CCCCC3)nn2)CC1 |  | 0.845 |
| CC(C)c1nc(CNC(=O)c2cc(COc3c(F)cccc3F)on2)cs1 | 0.383 |  |
| O=C(Cn1cc(NC(=O)CCC(=O)c2ccccc2)cn1)NCCCn1ncc2ccccc21 | 0.84 |  |

A stretch taken from the entries so far, as a working copy:

| Compound | bacterial growth OD600 (polymyxin B 0.75 µg/mL) | bacterial growth OD600 (polymyxin B 1 µg/mL) |
| --- | --- | --- |
| CCOC(=O)N1CCN(C(=O)c2cn(C3CCCCC3)nn2)CC1 |  | 0.845 |
| CC(C)c1nc(CNC(=O)c2cc(COc3c(F)cccc3F)on2)cs1 | 0.383 |  |
